Consider 1 substance from article PMC1896016.

In this assay the target is T1, HCF-Flag (Drosophila), overexpressed in transgenic embryos (Drosophila) (UniProt Q9V4C8).
T1 sequence: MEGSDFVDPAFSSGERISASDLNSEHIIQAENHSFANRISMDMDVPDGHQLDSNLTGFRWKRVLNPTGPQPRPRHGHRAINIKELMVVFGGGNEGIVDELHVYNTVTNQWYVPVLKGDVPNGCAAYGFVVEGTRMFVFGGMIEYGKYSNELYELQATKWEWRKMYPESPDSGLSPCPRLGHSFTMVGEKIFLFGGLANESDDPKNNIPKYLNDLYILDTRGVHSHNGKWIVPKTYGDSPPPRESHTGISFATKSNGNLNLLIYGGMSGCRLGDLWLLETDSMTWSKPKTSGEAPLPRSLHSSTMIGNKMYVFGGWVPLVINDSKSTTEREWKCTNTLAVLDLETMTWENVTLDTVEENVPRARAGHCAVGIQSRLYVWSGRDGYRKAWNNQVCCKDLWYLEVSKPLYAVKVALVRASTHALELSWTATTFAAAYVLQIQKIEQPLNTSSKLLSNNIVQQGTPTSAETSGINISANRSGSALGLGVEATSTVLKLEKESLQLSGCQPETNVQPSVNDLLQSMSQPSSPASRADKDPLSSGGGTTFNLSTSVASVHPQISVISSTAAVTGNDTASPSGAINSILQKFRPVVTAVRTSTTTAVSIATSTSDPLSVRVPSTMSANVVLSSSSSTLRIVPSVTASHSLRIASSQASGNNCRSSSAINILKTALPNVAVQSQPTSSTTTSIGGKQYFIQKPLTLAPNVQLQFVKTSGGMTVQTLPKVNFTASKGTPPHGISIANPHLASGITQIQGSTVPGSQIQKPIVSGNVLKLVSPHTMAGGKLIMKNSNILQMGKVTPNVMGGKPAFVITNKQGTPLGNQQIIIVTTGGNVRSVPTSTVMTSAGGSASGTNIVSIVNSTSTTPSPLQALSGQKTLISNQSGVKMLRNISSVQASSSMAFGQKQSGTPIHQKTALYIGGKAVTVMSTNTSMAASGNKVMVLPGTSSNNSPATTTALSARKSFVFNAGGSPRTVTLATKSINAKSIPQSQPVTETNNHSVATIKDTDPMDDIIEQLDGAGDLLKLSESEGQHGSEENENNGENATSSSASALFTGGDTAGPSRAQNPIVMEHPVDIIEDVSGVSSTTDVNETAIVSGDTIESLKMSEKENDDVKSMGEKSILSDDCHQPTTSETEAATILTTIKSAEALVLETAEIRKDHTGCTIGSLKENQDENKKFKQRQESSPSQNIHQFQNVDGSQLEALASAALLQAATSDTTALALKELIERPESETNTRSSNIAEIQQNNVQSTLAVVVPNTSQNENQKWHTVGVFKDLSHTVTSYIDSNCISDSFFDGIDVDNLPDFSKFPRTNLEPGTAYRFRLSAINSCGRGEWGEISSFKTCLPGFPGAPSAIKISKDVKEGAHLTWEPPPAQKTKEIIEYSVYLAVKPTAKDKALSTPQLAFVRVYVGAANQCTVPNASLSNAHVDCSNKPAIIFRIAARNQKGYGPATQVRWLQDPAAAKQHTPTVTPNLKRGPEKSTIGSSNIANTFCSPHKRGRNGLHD
Briefly: co-IP; extract of 0-16 h transgenic embryos overexpressing HCF-Flag (da-Gal4); anti-Flag M2 beads; 50 mM Tris pH 8, 200 mM NaCl, 5 mM EDTA, 0.5% NP40; wt embryos as negative control.

Results are given in words; binding and its absence hold for the method and conditions named. Binding seen in cells or lysates may run through a third protein. A result given as binding can be weak or reduced; the word gives no strength. Where a sequence is shown, tags or fusion partners need not be part of it.

Regarding Sin3A, endogenous in Drosophila embryos, the binding entry is reported as “binds weakly”.
